{"source": "paper doi:10.1101/553073", "target": "T1, FtsZ, bacterial two-hybrid fusion (Anabaena sp. PCC 7120) (UniProt P45482)", "T1 sequence": "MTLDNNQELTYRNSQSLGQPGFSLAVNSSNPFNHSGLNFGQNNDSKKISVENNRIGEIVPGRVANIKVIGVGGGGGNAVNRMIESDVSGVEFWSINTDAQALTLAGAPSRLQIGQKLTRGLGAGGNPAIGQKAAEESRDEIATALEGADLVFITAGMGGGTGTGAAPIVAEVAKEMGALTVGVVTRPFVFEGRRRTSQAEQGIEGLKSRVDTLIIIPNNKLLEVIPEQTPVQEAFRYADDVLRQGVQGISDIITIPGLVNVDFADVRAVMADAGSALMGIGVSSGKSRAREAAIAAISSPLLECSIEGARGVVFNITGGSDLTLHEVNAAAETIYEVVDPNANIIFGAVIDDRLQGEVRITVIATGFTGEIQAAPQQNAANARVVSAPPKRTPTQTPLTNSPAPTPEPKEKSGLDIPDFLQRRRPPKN", "experiment": "two-hybrid", "note": "Results are given in words; binding and its absence hold for the method and conditions named. Binding calls can cover weak binding; strength is not graded here. Tags and fused reporters may be left off the sequences shown.", "data": [{"substance": "CeaR (All2460), bacterial two-hybrid fusion (Anabaena sp. PCC 7120)", "values": [{"measurement": "binding", "value": "binds weakly"}]}]}
